Results are given in words; binding and its absence hold for the method and conditions named. Some binding calls cover weakened binding; strength is not graded here.
T1: AnkG ANK repeats (R1-24, residues 38-855) (UniProt O70511)
T1 sequence: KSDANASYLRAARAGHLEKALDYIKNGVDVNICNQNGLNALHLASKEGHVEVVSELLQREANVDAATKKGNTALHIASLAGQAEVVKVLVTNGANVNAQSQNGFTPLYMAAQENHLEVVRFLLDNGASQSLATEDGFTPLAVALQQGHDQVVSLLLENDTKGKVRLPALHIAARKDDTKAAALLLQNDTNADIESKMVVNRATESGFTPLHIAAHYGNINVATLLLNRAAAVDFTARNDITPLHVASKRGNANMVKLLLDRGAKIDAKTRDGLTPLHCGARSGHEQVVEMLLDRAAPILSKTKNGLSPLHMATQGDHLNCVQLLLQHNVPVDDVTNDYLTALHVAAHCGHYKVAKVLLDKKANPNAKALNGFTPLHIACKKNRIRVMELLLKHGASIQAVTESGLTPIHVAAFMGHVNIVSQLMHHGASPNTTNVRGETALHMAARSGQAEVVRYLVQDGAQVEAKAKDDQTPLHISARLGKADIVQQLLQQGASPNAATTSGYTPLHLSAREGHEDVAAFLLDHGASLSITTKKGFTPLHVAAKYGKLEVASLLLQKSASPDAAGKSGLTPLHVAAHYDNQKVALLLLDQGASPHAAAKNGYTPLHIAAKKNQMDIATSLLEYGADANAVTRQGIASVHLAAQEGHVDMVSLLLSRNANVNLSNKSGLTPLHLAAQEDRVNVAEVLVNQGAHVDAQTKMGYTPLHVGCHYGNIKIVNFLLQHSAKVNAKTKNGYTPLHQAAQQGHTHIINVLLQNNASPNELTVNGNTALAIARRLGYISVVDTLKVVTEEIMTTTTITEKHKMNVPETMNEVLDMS

T2: AnkG 275-571 (AnkG R8-16) (UniProt O70511)
T2 sequence: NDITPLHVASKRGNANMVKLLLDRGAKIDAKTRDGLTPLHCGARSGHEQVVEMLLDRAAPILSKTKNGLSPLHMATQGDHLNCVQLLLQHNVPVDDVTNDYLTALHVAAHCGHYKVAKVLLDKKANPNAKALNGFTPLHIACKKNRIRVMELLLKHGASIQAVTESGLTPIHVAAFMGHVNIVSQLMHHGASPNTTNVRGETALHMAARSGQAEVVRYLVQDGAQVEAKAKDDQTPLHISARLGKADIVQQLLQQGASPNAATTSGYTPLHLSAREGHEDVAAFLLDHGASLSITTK


Columns and labels:
[1] = target: T1, AnkG ANK repeats (R1-24, residues 38-855); assay: ITC
[2] = target: T1, AnkG ANK repeats (R1-24, residues 38-855); assay: ITC; remark: listed apart in the source
GST-L1CAM 1206-1233 WT = GST-L1CAM 1206-1233 WT (UniProt Q05695); assay: pull-down
[3] = target: T2, AnkG 275-571 (AnkG R8-16); assay: crystal structure
[4] = target: T2, AnkG 275-571 (AnkG R8-16); assay: SEC
[5] = target: T1, AnkG ANK repeats (R1-24, residues 38-855); assay: SEC

| Molecule | binding [1] | further results |
| --- | --- | --- |
| Nfasc 1198-1214 (from UniProt P97685 1198-1214) (peptide) | binds | – |
| Nfasc 1198-1214 D1205A (from UniProt P97685 1198-1214) (peptide) | binds | – |
| Nfasc 1198-1214 D1205K (from UniProt P97685 1198-1214) (peptide) | binds | – |
| Nfasc 1198-1214 F1208Q (from UniProt P97685 1198-1214) (peptide) | binds | – |
| Nfasc 1198-1214 I1209Q (from UniProt P97685 1198-1214) (peptide) | binds | – |
| full-length Nfasc cytoplasmic tail, residues 1132-1240 (domain or fragment, UniProt P97685 1132-1240) KRSRGGKYPVREKKDVPLGPEDPKEEDGSFDYSDEDNKPLQGSQTSLDGTIKQQESDDSLVDYGEGGEGQFNEDGSFIGQYTVRKDKEETEGNESSEATSPVNAIYSLA | – | binding [2]: binds |
| AnkG ANK repeats (R1-24, residues 38-855) (domain or fragment, UniProt O70511 38-855) KSDANASYLRAARAGHLEKALDYIKNGVDVNICNQNGLNALHLASKEGHVEVVSELLQREANVDAATKKGNTALHIASLAGQAEVVKVLVTNGANVNAQSQNGFTPLYMAAQENHLEVVRFLLDNGASQSLATEDGFTPLAVALQQGHDQVVSLLLENDTKGKVRLPALHIAARKDDTKAAALLLQNDTNADIESKMVVNRATESGFTPLHIAAHYGNINVATLLLNRAAAVDFTARNDITPLHVASKRGNANMVKLLLDRGAKIDAKTRDGLTPLHCGARSGHEQVVEMLLDRAAPILSKTKNGLSPLHMATQGDHLNCVQLLLQHNVPVDDVTNDYLTALHVAAHCGHYKVAKVLLDKKANPNAKALNGFTPLHIACKKNRIRVMELLLKHGASIQAVTESGLTPIHVAAFMGHVNIVSQLMHHGASPNTTNVRGETALHMAARSGQAEVVRYLVQDGAQVEAKAKDDQTPLHISARLGKADIVQQLLQQGASPNAATTSGYTPLHLSAREGHEDVAAFLLDHGASLSITTKKGFTPLHVAAKYGKLEVASLLLQKSASPDAAGKSGLTPLHVAAHYDNQKVALLLLDQGASPHAAAKNGYTPLHIAAKKNQMDIATSLLEYGADANAVTRQGIASVHLAAQEGHVDMVSLLLSRNANVNLSNKSGLTPLHLAAQEDRVNVAEVLVNQGAHVDAQTKMGYTPLHVGCHYGNIKIVNFLLQHSAKVNAKTKNGYTPLHQAAQQGHTHIINVLLQNNASPNELTVNGNTALAIARRLGYISVVDTLKVVTEEIMTTTTITEKHKMNVPETMNEVLDMS | – | binding (GST-L1CAM 1206-1233 WT): binds |
| SDDSLVDYGEGGEGQFNEDGSFIGQYTV (domain or fragment) [Nfasc ankyrin binding domain (ABD), residues 1187-1214] | – | binding [3]: binds; binding [4]: binds; binding [5]: binds |

Source: article doi:10.1101/2022.04.27.489743 (bioRxiv, 2022)
